Results on six molecules are retold here after paper PMC8211822, “CRISPR-Associated Primase-Polymerases are implicated in prokaryotic CRISPR-Cas adaptation” (Nature Communications, 2021).

Results are given in words; binding and its absence hold for the method and conditions named. Some entries that bind do so weakly or less than the wild type. Sequences can lack the tags named with a protein.

Holding throughout (test): two-hybrid; GAL4 activation-domain and DNA-binding-domain fusions co-transformed into S. cerevisiae PJ69-4A; drop tests on medium lacking leucine, tryptophan and histidine (with 3-AT) or adenine; 3 days at 30 °C
Assay [1] has as its target Marinitoga piezophila integration host factor (MpIHF), GAL4 fusion (Marinitoga piezophila) (UniProt H2J7L5).
The target in assay [2] is T1, MpCAPP ΔCTD fragment (aa. 1-360), GAL4 fusion (Marinitoga piezophila) (UniProt H2J4R1).
T1 sequence: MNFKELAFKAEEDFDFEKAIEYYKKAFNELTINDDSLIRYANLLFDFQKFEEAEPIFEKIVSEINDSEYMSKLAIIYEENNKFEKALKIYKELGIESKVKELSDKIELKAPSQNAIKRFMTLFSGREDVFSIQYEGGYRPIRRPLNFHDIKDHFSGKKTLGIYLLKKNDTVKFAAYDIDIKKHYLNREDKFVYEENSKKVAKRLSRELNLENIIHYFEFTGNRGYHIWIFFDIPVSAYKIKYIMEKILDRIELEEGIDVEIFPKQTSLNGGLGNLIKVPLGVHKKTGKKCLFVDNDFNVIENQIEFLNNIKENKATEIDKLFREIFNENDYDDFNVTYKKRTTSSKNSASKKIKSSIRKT

Assay [3] addresses T2, Marinitoga piezophila Argonaute (MpAgo), GAL4 fusion (Marinitoga piezophila) (UniProt H2J4R4).
T2 sequence: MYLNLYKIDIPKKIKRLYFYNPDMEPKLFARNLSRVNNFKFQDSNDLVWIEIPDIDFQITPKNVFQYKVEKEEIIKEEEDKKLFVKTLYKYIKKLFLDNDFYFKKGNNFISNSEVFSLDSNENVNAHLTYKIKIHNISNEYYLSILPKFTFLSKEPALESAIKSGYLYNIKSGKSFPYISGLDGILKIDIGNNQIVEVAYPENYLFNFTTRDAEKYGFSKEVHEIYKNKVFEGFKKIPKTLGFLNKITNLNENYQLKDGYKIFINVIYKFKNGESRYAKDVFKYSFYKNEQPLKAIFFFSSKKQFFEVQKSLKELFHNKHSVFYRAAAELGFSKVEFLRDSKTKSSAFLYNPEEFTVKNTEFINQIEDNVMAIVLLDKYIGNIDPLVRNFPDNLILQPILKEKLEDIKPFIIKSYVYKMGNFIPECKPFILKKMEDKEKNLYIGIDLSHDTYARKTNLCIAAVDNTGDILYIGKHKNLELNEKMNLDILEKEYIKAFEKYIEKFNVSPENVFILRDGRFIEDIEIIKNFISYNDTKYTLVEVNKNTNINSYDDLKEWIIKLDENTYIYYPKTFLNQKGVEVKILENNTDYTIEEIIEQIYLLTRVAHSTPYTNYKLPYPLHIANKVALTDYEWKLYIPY

Assay [4] deals with T3, Marinitoga piezophila CRISPR-associated Prim-Pol (MpCAPP), full length, GAL4 fusion (Marinitoga piezophila) (UniProt H2J4R1).
T3 sequence: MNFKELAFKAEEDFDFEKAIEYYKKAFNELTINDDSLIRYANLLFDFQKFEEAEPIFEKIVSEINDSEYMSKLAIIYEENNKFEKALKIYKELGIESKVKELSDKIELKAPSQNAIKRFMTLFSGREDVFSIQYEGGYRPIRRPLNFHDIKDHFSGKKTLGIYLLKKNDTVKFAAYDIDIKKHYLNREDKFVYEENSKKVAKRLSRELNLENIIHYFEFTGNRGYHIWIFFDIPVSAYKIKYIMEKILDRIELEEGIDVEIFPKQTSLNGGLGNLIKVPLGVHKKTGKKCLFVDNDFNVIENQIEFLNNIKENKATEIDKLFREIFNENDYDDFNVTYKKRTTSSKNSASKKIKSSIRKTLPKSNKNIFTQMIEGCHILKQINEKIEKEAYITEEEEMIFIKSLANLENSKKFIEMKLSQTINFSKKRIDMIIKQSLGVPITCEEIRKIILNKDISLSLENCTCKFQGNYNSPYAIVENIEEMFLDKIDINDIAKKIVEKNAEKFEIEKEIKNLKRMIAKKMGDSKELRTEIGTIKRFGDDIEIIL

Assay [5] has as its target MpCAPP CTD fragment (aa. 360-546), GAL4 fusion (Marinitoga piezophila) (UniProt H2J4R1).

B1: Marinitoga piezophila integration host factor (MpIHF), GAL4 fusion (protein, UniProt H2J7L5 1-90)
chain: MNKKELVSALAEKLSVTKKEAALFVDSFVDVVSEALSKGDNVKIVGFGTFEVVERKPRKGVNPQTKETIEIPGGKVPKFKAGKELKAKVK
On to B1, for which, in assay [1], the binding result is “binds”.

B2: MpCAPP TPR fragment (aa. 1-100), GAL4 fusion (domain or fragment, UniProt H2J4R1 1-100)
chain: MNFKELAFKAEEDFDFEKAIEYYKKAFNELTINDDSLIRYANLLFDFQKFEEAEPIFEKIVSEINDSEYMSKLAIIYEENNKFEKALKIYKELGIESKVK
With B2, the binding entry in assay [2] was “binds”.

B3: Marinitoga piezophila CRISPR-associated Prim-Pol (MpCAPP), full length, GAL4 fusion (enzyme, UniProt H2J4R1 1-546)
chain: T3 sequence
As for B3, the binding result in assay [3] and in assay [4] was “binds” throughout.

B4: AD-MpCAPP fused to MBP (AD-MpCAPP-MBP) (enzyme, UniProt H2J4R1 1-546)
chain: T3 sequence
As for B4, the binding result in assay [4] is recorded as “binds”.

B5: MpCAPP CTD fragment (aa. 360-546), GAL4 fusion (domain or fragment, UniProt H2J4R1 360-546)
chain: TLPKSNKNIFTQMIEGCHILKQINEKIEKEAYITEEEEMIFIKSLANLENSKKFIEMKLSQTINFSKKRIDMIIKQSLGVPITCEEIRKIILNKDISLSLENCTCKFQGNYNSPYAIVENIEEMFLDKIDINDIAKKIVEKNAEKFEIEKEIKNLKRMIAKKMGDSKELRTEIGTIKRFGDDIEIIL
As to B5, the binding result in assay [3], in assay [4] and in assay [5] was “binds” in each case.

B6: MpCAPP ΔCTD fragment (aa. 1-360), GAL4 fusion (domain or fragment, UniProt H2J4R1 1-360)
chain: T1 sequence
On to B6, for which the binding entry in assay [4] and in assay [2] was “binds weakly” throughout.
